Measured values taken from PubChem BioAssay AID504444 (National Center for Advancing Translational Sciences (NCATS), 2011).
In all, about 360,000 compounds went through this assay and about 7,500 (2.1%) were called active. The inconclusive results got no clear call from the source; some entries with a clear call stand among them for comparison. The call rests on the fitted dose curve; in most records, active means well fitted inhibition curve with a large enough effect; inconclusive means small, poorly fitted or top-dose-only effect, or effect the other way; inactive means flat fitted curve, though single readings scatter. Potencies of inconclusive entries are doubtful fits and often do not repeat.
On the % scale 0 is the no-effect control and ±100 the full control effect; potency means the concentration at half of the fitted maximal effect.

Experiment: Nrf2 qHTS screen for inhibitors; further: nearly all actives have a fitted effect of over 60% in size
Conditions: A549 ARE-Fluc reporter, luciferase luminescence, 18-24 h; activity change, negative = inhibition: at 46 µM (top of the series)
Summary of the method: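 Two sequential reads on A549 ARE_Fluc cells exposed to compound for 18-24 h: a CellTiter-Fluor fluorescence read for viability, then a luciferase luminescence read for Nrf2/ARE activity.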
For `COc1ccc(-c2noc(CSc3nnc(-c4ccncc4)n3-c3cccc(C)c3)n2)cc1OC`, the Potency was inconclusive: 25.9 µM [falling, single point]. With `Cc1ccc(-c2ccc(/C=C3/NC(=O)NC3=O)o2)cc1[N+](=O)[O-]` the Potency was inconclusive: 11.6 µM [falling, partial curve, poor fit]. With `COc1ccc(N(CC(=O)Nc2cccc(OC)c2)S(=O)(=O)c2c(C)nn(C)c2C)cc1` the Potency was inconclusive: 0.0731 µM [falling, full curve, poor fit]. For `Cc1csc2c(N3CCN(C(=O)NC(C)(C)C)CC3)ncnc12`, the Potency was active: 18.4 µM. With `O=C(c1cc2ccccc2o1)c1nc2c(n1O)CCCCC2` the Potency was inconclusive: 14.6 µM [activator, single point]. With `COc1ccc(S(=O)(=O)N2CCc3ccccc32)cc1C(=O)NCCc1ccccn1` the “activity change, negative = inhibition” value was inactive: 2.97%. In the case of `O=C(Nc1ccc(Br)cn1)c1ccc(Br)s1`, the Potency is reported as inconclusive: 4.61 µM [activator, single point]. In the case of `CC(=O)NCC(=O)NC1CCCc2c1cnn2-c1ccc(C(C)(C)C)cc1` (centres undefined), the Potency is reported as inconclusive: 25.9 µM [falling, partial curve, poor fit]. In the case of `Cc1cc2nc3c(nc2cc1C)CCCC3`, the Potency is reported as inconclusive: 20.6 µM [activator, single point]. With `CCOc1ccc(C(=O)C(CCC(CN(C)C)C(=O)c2ccc(OCC)cc2)CN(C)C)cc1` (centres undefined) the Potency was inconclusive: 14.6 µM [falling, single point]. For `Cc1cc(C)cc(NC(=O)NCC2CCN(Cc3cc(C)ccc3C)CC2)c1`, the Potency was inconclusive: 13 µM [activator, partial curve, poor fit]. For `CC(=O)Nc1ccc(-c2nnc3n(CC(C)C)c(=O)c4ccccc4n23)cc1`, the Potency was inconclusive: 18.4 µM [falling, partial curve]. For `CCOC(=O)C1=C(CNCc2ccccc2)NC(=O)NC1c1ccc(C)cc1` (centres undefined), the “activity change, negative = inhibition” value was inactive: -11.9%. With `O=C(NCCCN1CCOCC1)c1cc(S(=O)(=O)N2CCN(c3ccccc3)CC2)ccc1Cl` the Potency was inconclusive: 14.6 µM [falling, partial curve, poor fit]. For `Cc1cccn2c(=O)c3cc(C#N)c(=O)n(-c4c(C)n(C)n(-c5ccccc5)c4=O)c3nc12`, the Potency was inconclusive: 0.184 µM [activator, full curve, poor fit]. In the case of `Cc1[nH]c2ccc(C(=O)N3CCN(C)CC3)cc2c1C`, the Potency is reported as inconclusive: 2.31 µM [falling, partial curve, poor fit]. In the case of `O=C(Nc1ccncc1)C1c2ccccc2Oc2ccccc21`, the “activity change, negative = inhibition” value is reported as inactive: 0.644%. For `CCNc1nc(NCC)n2c(SCC(=O)Nc3ccc(NC(C)=O)cc3)nnc2n1`, the Potency was inconclusive: 4.11 µM [activator, full curve, poor fit]. With `CCOC(=O)c1ccc(NC(=O)c2ccnn2C)cc1` the Potency was inconclusive: 18.4 µM [activator, partial curve, poor fit]. With `CCc1nc2ccc(C(=O)NCc3ccc(C)o3)cc2nc1CC` the Potency was inconclusive: 32.6 µM [falling, partial curve, poor fit]. In the case of `COc1ccc(-n2c(=O)c3c(C)c(C)sc3n(Cc3ccc(F)cc3)c2=O)c(OC)c1`, the Potency is reported as inconclusive: 6.51 µM [activator, single point]. With `Cn1cc(C(=O)Nc2ccc(Cl)cc2)c(C(F)(F)F)n1` the “activity change, negative = inhibition” value was inactive: -18.3%. With `COc1cc(/C(C)=N/NC(=S)NC(C)C)cc(OC)c1OC` the Potency was inconclusive: 25.9 µM [falling, partial curve, poor fit]. With `Cc1c(C(=O)N2CCCCC2)oc2ccc(Br)cc12` the Potency was inconclusive: 8.2 µM [activator, partial curve]. In the case of `Cc1cc(N2CCN(C)CC2)nc2ccc(NC(=O)Nc3ccccc3Cl)cc12`, the Potency is reported as inconclusive: 6.51 µM [falling, single point]. In the case of `CCCCCn1c(=O)[nH]c2cc(C(=O)NCc3ccc4c(c3)OCO4)ccc2c1=O`, the “activity change, negative = inhibition” value is reported as inactive: 9%. With `Cc1cc(=O)oc2c3c(cc(OCC(=O)NCCCn4ccnc4)c12)OC(C)(C)CC3` the Potency was inconclusive: 13 µM [falling, partial curve, poor fit]. In the case of `Cc1ccc(CN2CCN(/N=C/c3ccc(C)s3)CC2)c(C)c1`, the “activity change, negative = inhibition” value is reported as inactive: -5.96%. In the case of `C=C1CCN(C(CC(C)C)C(=O)NN2CCOCC2)S(=O)(=O)c2ccccc21` (centres undefined), the “activity change, negative = inhibition” value is reported as inactive: 1.54%. In the case of `CC(=O)Nc1ccc(-c2csc(NC=C3C(=O)OC(C)(C)OC3=O)n2)cc1`, the Potency is reported as inconclusive: 2.91 µM [activator, full curve, poor fit]. For `Cc1ccc(OCC(=O)OCc2cc(=O)n3nc(C4CCCCC4)sc3n2)cc1`, the Potency was inconclusive: 9.2 µM [activator, partial curve, poor fit]. In the case of `O=C(c1[nH]nc2c1CCc1ccccc1-2)N1CCN(Cc2ccc3c(c2)OCO3)CC1`, the Potency is reported as active: 14.6 µM. In the case of `O=c1/c(=C/c2ccc([N+](=O)[O-])cc2)sc2n1CCCN=2`, the Potency is reported as inconclusive: 5.8 µM [activator, full curve]. For `c1ccc(CN2CCN(Cc3nnc(-c4ccccc4)o3)CC2)cc1`, the Potency was inconclusive: 29.1 µM [activator, single point]. For `COc1ccc(OC)c(CCNC(=O)c2sc3nc4n(c(=O)c3c2C)CCCC4)c1`, the Potency was inconclusive: 9.2 µM [falling, partial curve, poor fit]. For `CC(C)(C)c1ccc(/C=N/OCC(=O)NCc2ccc(F)cc2)cc1`, the Potency was inconclusive: 32.6 µM [falling, partial curve, poor fit]. For `CC(=O)Nc1ccc(NC(=O)C(C)OC(=O)c2ccc(N(C)C)cc2)cc1` (centres undefined), the Potency was inconclusive: 14.6 µM [falling, partial curve]. In the case of `Cc1ccc(/C=N/NC(=O)NN(C)c2ncc(C(F)(F)F)cc2Cl)cc1`, the Potency is reported as inconclusive: 18.4 µM [falling, partial curve]. For `C=CCNC(=O)Nc1ccc(F)cc1F`, the Potency was inconclusive: 3.66 µM [falling, partial curve, poor fit]. In the case of `CCN(CC)c1ccc(N=Nc2ncn[nH]2)cc1`, the Potency is reported as inconclusive: 2.91 µM [activator, full curve]. In the case of `C=CCNc1ncnc2c1cnn2-c1ccc(C)cc1C`, the “activity change, negative = inhibition” value is reported as inactive: 9.08%. In the case of `COc1cc(OC)c(C2C=C(c3ccc(C)cc3)Nc3c(C(=O)Nc4ccccc4)cnn32)cc1OC` (centres undefined), the Potency is reported as inconclusive: 23.1 µM [falling, single point]. With `O=C(Nc1sc2c(c1-c1nc3ccccc3[nH]1)CCCC2)C1CCCC1` the “activity change, negative = inhibition” value was inactive: 0.562%. In the case of `COc1ccc(NC(=O)c2cccs2)cn1`, the Potency is reported as inconclusive: 13 µM [activator, partial curve, poor fit]. For `Cn1cc(S(=O)(=O)Nc2ccc3c(c2)OCCO3)cn1`, the Potency was inconclusive: 7.31 µM [activator, partial curve]. With `COc1cccc(/C=N/NC(=O)c2cccc(N3CCCC3=O)c2)c1` the Potency was inconclusive: 10.3 µM [activator, partial curve]. In the case of `COc1ccccc1OCCn1cc(C(=O)O)c2ccccc21`, the Potency is reported as inconclusive: 2.06 µM [activator, full curve, poor fit]. In the case of `COc1ccccc1-n1c2nc3ccccc3nc2c2c(=O)n(-c3cc(C)cc(C)c3)cnc21`, the Potency is reported as inconclusive: 2.59 µM [falling, full curve]. For `O=C(COC(=O)c1ccccc1Nc1ccc(SC(F)F)cc1)NCc1ccco1`, the Potency was inconclusive: 18.4 µM [activator, single point]. With `Cc1ccc(/C=C2/SC(=S)N(c3ccc(S(=O)(=O)Nc4nccs4)cc3)C2=O)cc1` the Potency was inconclusive: 25.9 µM [falling, single point]. For `Cc1ccc(NC(=O)c2ccc3c(=O)n4nc(Nc5ccccc5C)sc4nc3c2)cc1C`, the Potency was inconclusive: 23.1 µM [falling, partial curve, poor fit]. In the case of `O=C(CN1C(=O)/C(=C/c2ccco2)SC1=S)Nc1ccc(C(=O)O)c(O)c1`, the Potency is reported as inconclusive: 32.6 µM [falling, partial curve, poor fit]. For `C/C(=N\NC(=O)c1ccc(Cn2cc(Br)cn2)o1)c1cccc(NC(=O)C(C)C)c1`, the “activity change, negative = inhibition” value was inactive: -26.5%. For `CCCc1ccc(-c2cc(C(=O)NN3CCOCC3)c3ccccc3n2)cc1`, the Potency was inconclusive: 23.1 µM [activator, partial curve, poor fit]. With `COc1ccc(-c2cc(C(=O)N(C)Cc3ccccc3F)c3ccccc3n2)cc1OC` the Potency was inconclusive: 29.1 µM [falling, single point]. In the case of `O=C(Cn1ncc2c3ccccc3n(Cc3ccccc3)c2c1=O)NCCCN1CCCC1=O`, the Potency is reported as inconclusive: 14.6 µM [falling, partial curve, poor fit]. In the case of `O=C(Nc1cccc(S(=O)(=O)N2CCOCC2)c1)C1CC(=O)N(c2ccc3c(c2)OCCO3)C1` (centres undefined), the Potency is reported as inconclusive: 23.1 µM [falling, single point]. For `Cc1cccc(NC(=O)/C=C/c2ccc([N+](=O)[O-])s2)c1`, the “activity change, negative = inhibition” value was inactive: -6.03%. In the case of `NC(=O)c1ccc(OCC(=O)N2CCNC2=O)cc1`, the “activity change, negative = inhibition” value is reported as inactive: 17.2%. In the case of `N=C1SCC(=O)N1c1ncc(Cc2ccc(F)cc2)s1`, the Potency is reported as inconclusive: 23.1 µM [falling, single point]. For `COc1ccc(C2C(C(=O)c3sc(C)nc3C)=C(O)C(=O)N2CCCn2ccnc2)cc1` (centres undefined), the Potency was inconclusive: 0.517 µM [activator, full curve, poor fit]. For `Cc1ccc(NC(=O)c2ccc(OC(F)(F)F)cc2)cc1S(=O)(=O)N(C)C`, the Potency was active: 11.6 µM. With `CCCn1c2ccccc2c2cnn(CC(=O)N(CC)CC)c(=O)c21` the Potency was inconclusive: 10.3 µM [falling, partial curve, poor fit]. With `O=C(Nc1ccc(F)cc1)c1cccc(N2CCCS2(=O)=O)c1` the Potency was inconclusive: 7.31 µM [activator, partial curve].
